Common to all, as to assay: affinity purification with mass spectrometry; total proteins of inflorescence tissues of epitope-tagged transgenic plants in IP buffer (50 mM Tris-HCl pH 7.6, 150 mM NaCl, 5 mM MgCl2, 10% glycerol, 0.1% NP-40, 0.5 mM DTT), precipitated with anti-Flag or anti-Myc antibodies 2 h at 4 °C, five washes, MS
Test [1] addresses T1, ASI1-IMMUNO… PROTEIN 3 (AIPP3), epitope-tagged in transgenic Arabidopsis (Arabidopsis) (UniProt Q8RXT5).
T1 sequence: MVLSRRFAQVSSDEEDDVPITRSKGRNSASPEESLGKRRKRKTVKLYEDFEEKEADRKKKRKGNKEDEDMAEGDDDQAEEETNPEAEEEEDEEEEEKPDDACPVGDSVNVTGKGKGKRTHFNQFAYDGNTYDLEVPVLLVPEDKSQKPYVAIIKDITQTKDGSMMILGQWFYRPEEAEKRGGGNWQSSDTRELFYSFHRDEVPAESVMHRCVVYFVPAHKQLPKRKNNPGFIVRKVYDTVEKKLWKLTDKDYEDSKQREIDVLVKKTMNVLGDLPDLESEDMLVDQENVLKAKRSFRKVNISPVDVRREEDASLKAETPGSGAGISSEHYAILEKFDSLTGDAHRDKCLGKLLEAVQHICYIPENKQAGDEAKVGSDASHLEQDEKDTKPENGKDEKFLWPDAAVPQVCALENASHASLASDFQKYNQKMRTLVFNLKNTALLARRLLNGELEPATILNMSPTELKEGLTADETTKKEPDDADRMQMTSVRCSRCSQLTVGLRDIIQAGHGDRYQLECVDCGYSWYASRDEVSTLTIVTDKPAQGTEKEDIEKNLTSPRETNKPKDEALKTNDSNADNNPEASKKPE

Test [2] addresses T2, CPL2, epitope-tagged in transgenic Arabidopsis (Arabidopsis) (UniProt Q5YDB5).
T2 sequence: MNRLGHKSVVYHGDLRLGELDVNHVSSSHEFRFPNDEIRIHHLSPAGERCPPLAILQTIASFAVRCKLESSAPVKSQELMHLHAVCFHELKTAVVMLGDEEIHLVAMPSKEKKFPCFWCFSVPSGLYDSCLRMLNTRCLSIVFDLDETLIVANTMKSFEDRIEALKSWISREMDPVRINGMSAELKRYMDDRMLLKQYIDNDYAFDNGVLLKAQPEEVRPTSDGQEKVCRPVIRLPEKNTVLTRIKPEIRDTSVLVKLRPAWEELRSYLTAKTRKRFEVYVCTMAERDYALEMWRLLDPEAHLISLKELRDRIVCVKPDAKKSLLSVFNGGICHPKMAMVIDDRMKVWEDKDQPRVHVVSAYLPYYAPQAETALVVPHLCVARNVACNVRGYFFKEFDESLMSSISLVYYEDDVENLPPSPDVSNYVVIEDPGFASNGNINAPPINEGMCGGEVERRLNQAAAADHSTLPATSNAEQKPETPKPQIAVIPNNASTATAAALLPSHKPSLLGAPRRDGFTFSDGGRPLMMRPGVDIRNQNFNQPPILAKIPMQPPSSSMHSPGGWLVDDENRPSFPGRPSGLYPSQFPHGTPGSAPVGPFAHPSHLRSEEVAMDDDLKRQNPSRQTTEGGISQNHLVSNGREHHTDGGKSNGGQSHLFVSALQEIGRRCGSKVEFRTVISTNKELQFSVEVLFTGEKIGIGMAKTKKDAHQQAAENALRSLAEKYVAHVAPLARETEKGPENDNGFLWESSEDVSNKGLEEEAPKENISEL

Test [3] concerns the target T3, AIPP2, epitope-tagged in transgenic Arabidopsis (Arabidopsis) (UniProt F4IYH6).
T3 sequence: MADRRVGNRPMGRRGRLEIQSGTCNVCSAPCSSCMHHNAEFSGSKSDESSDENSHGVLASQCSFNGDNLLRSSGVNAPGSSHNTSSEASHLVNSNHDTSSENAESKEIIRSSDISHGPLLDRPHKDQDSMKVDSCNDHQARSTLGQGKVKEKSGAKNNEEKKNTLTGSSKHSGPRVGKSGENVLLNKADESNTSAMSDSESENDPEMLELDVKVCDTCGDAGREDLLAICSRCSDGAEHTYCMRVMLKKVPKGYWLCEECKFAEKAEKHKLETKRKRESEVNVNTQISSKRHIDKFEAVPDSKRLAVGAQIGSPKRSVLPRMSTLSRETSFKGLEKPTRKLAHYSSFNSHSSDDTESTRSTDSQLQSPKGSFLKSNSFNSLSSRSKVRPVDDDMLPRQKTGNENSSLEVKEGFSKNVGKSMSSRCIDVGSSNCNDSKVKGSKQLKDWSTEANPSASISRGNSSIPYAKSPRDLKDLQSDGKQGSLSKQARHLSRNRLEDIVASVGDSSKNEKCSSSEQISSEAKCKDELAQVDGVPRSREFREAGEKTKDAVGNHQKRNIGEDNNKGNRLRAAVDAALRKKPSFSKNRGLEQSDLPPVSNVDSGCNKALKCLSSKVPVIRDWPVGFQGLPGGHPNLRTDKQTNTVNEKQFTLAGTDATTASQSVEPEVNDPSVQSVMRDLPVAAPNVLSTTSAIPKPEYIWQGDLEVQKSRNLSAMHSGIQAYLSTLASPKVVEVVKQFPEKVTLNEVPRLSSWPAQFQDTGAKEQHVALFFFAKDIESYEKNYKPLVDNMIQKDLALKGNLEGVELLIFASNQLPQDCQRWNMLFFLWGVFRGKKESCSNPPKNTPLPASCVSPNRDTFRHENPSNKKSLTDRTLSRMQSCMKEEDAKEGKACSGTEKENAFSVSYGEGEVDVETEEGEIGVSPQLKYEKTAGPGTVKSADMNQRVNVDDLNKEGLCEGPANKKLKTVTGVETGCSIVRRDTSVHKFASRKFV

Results are given in words; binding and its absence hold for the method and conditions named. Binding seen in cells or lysates may run through a third protein. These calls come from enrichment with a bait or labelling near it, and not all partners need be listed. No binding means not detected with the bait. Sequences can lack the tags named with a protein.

B1: AIPP2, epitope-tagged in transgenic Arabidopsis (protein, UniProt F4IYH6 1-994)
chain: MADRRVGNRPMGRRGRLEIQSGTCNVCSAPCSSCMHHNAEFSGSKSDESSDENSHGVLASQCSFNGDNLLRSSGVNAPGSSHNTSSEASHLVNSNHDTSSENAESKEIIRSSDISHGPLLDRPHKDQDSMKVDSCNDHQARSTLGQGKVKEKSGAKNNEEKKNTLTGSSKHSGPRVGKSGENVLLNKADESNTSAMSDSESENDPEMLELDVKVCDTCGDAGREDLLAICSRCSDGAEHTYCMRVMLKKVPKGYWLCEECKFAEKAEKHKLETKRKRESEVNVNTQISSKRHIDKFEAVPDSKRLAVGAQIGSPKRSVLPRMSTLSRETSFKGLEKPTRKLAHYSSFNSHSSDDTESTRSTDSQLQSPKGSFLKSNSFNSLSSRSKVRPVDDDMLPRQKTGNENSSLEVKEGFSKNVGKSMSSRCIDVGSSNCNDSKVKGSKQLKDWSTEANPSASISRGNSSIPYAKSPRDLKDLQSDGKQGSLSKQARHLSRNRLEDIVASVGDSSKNEKCSSSEQISSEAKCKDELAQVDGVPRSREFREAGEKTKDAVGNHQKRNIGEDNNKGNRLRAAVDAALRKKPSFSKNRGLEQSDLPPVSNVDSGCNKALKCLSSKVPVIRDWPVGFQGLPGGHPNLRTDKQTNTVNEKQFTLAGTDATTASQSVEPEVNDPSVQSVMRDLPVAAPNVLSTTSAIPKPEYIWQGDLEVQKSRNLSAMHSGIQAYLSTLASPKVVEVVKQFPEKVTLNEVPRLSSWPAQFQDTGAKEQHVALFFFAKDIESYEKNYKPLVDNMIQKDLALKGNLEGVELLIFASNQLPQDCQRWNMLFFLWGVFRGKKESCSNPPKNTPLPASCVSPNRDTFRHENPSNKKSLTDRTLSRMQSCMKEEDAKEGKACSGTEKENAFSVSYGEGEVDVETEEGEIGVSPQLKYEKTAGPGTVKSADMNQRVNVDDLNKEGLCEGPANKKLKTVTGVETGCSIVRRDTSVHKFASRKFV
Consider B1, for which the binding entry in test [1] and in test [2] was “binds” throughout.

B2: anti-silencing 1 (ASI1) (protein, UniProt Q9LYE3 1-650)
chain: MEESVASEGLEFKWGKKKGVGGKKKDVQFYESFTYDGDEYRLYDCVLVGNASEPDSTEPFIGMIIKIWEHANKHIPKKVKLLWFFKPSEIAPYLEGVPNVLANEVFLASGEGLGLANTNQLEAIGGKCSVLCISKDKRNPQPSDEKFNSADFVFCRAFDVGSCKVVDTIDDKIAGVDVKFIFNRACSEKEATAVQNIEADVNGKSDSLKPNGPLARGASGSVRKIEDSAFESSDCKENSNGCKEEKEKGHYQLAIKKSTLAEERSNKDSGSRGNHYNGKDQESEVKKQLTKQKSMPGEERYSNSFEASGSRTIHSISKKAQENDVKKQLTKQKSMPAGERYSQESSGLDDRPLKKQKLDGSVTVRDGWDTTILQNITSDGKKDTGSFKRPRDKVTIEEVPPEKRSFVKNRDLVVSVSEGKTTKTVTEKGISKKPSFGRAEDKMSADDNERNYQVTEVCRRPDAGKSKWFRSLPWEESMREAEKKGTVVLLQNLDPTYTSDEVEDIVYSALNQQCEARMIERTSVTIPHIGEALVIFKTREVAERVIRRLDEGCLLLSSGRPLVASFAKITPPGKPSLFSGHIKLHKTQTRREMRDAVATSHSSQPNNLEFDMAMEWCLHQARHEQASESVSKRQLEEMKSLRINFKLKLP
In the case of B2, the binding entry in test [3], in test [1] and in test [2] was “no binding” in each case.

B3: PARALOG OF AIPP2 (PAIPP2), epitope-tagged in transgenic Arabidopsis (protein, UniProt F4KE59 1-1311)
chain: MADRRVGKRQMGQRGFSKVESGTCNVCSAPCSSCMHRNVGFTGSKLDESSDENCHGVVGSQCSVNEDDLLPSSMVNAHKSLNNTASEASNLVNSSHDALSENAESKETIRCSGISDDSGAAAMTSKPSLSGSRMKHKVSASANMLDQSSNCIEDQEDGILSADRAKQLKSGCSNNEIGNKDLADGSALNSDPIPGGSRKDEVKLESLQNPSSNHDDRVSSEKGNFKEKSRPGGNKERQEPSVEGSTRSGENRKDGKSSKSSSSNSSAVSESESDDSEMVEHDVKVCDICGDAGREDLLAICSGCSDGAEHTYCMREMLDEVPEGDWLCEECAEEAEKQKQEAKRKRETEVTFNTYSSGKRHADKIEAAPDAKRQVVEASTGSPKKSILPRVGALSRETSFKGLDRLRGKLNHQTSFSDDTESARSAGSQLQPPKGAFLKSSSFNCSSSKPKVQLMDDAIHPRQKTGKEDTALDLKVGGFRNVGKSMPSRTTDAGNSGGSDSQAKMLGSKVYHSQEGKSLKQVKDRNREANASASSIDQKLKSRGNSSVSHANNNRDLKGLQSDGKRGNLTKQVSNLSRNRLENSVVSGGDISTNEKCSASEQSSSQADCKDELPSTSCTGEGMPNHGTVALQDGLPRSRVPREVGKKSKEAFSKRQRSSLLAGAKGLPSSQKGGQTAESSDTSGVSDSDLSTTKNVKEDLNKGNRLRAAVDAALRKKPSFGKNRVLEQSDASLVANVDSSSEKTLRNQLPSKMHKNHVSHEGLQGGHPILWPTSDPYKQTIVTNEKQLIFPGADTIPSRLVEPEVSFPAVKPVMRDLPLVPSPVMLRSSAIPDHEFIWQGDLEVRKIINQSAMHSGIQAHLSTLASPRVAEVVNKFPETFSLNEVPRKSTWPTQFEKLGTKEAHIALFFFAKDTESYERNYKPLVDNMIKNDLALKGNLDNVDLLIFASNQLPSNCQRWNMLYFLWGVFQGRKETNPQKNTSLPTSNVLPRDRDPKELCQTSSPSKHLEKGSSLRESSSNGIETRNGTDARSHENPNNRESSIERSPSKKEDIALKVEEAGVNHIPPQVTGSNSGDSLVRKVQKVEEQELGGRKDLPLTVMGSGIQSHGQDNPLEKDLNSSQASHRKRPLWELSNPANENSSAINQKVELNNDGLCEGSPNKKLKTENGSSSLCRDTSGHDSGIMKKSPKVVFPLDLNDDSEMVDNLSPLGNDENNNNRRLISGTVPNLELALGAEETTEATMGLLPFLSRSSNSGEQSNNSMNKEKQKADEEEEDDAEVAASLSLSLSFPGTEERKNVNTPLFLFRDLPR
Take B3: the binding result in test [1] and in test [2] was “binds” in each case.

The values are drawn from article PMC7718874, “Coupling of H3K27me3 recognition with transcriptional repression through the BAH-PHD-CPL2 complex in Arabidopsis” (Nature Communications, 2020).
